Structures were worked out from names or drawings and are uncertain.
Target: FSHR (Homo sapiens, UniProt P23945)
Assay: EC50 of cyclic AMP production in CHO FSHR cells + EC20 FSH (HTRF)
Conditions: Cho-FSHR-LUC-1-1-43 cells
Procedure: EC50 of Cyclic AMP Production in CHO FSHR Cells+EC20 FSH
2500 Cho-FSHR-LUC-1-1-43 cells were plated per well in 5 μL of phenol red free DMEM/F12+1% FBS. Cells were plated in 384 well, solid white low volume plates (Greiner 784075) by Multidrop. Cells were assayed by adding […] of 2×EC20 FSH/IBMX in DMEM/F12+0.1% BSA) by Multidrop to 2 μL of test compound stamped in 384 well plates (compounds are diluted 1:50). The final FSH concentration was 0.265 pM, and the final IBMX concentration was 200 μM. The compound plate map was as follows: Column 1: 2 μL of DMSO; Column 2: 2 μL of DMSO; Columns 3-12 and 13-24: 2 μL of test compound, diluted 1:4 in 100% DMSO, or 2 μL of FSH, diluted 1:4 in DMEM/F12+0.1% BSA. The starting concentration for FSH was 50 nM (final concentration was 0.5 nM). Furthermore, Column 23 contained 2 μL of EC100 FSH reference (100×) (diluted in DMEM/F12+0.1% BSA) at a final concentration of 0.5 nM, and Column 24 contained 2 μL of 1 mM AS707664/2 reference compound 2. 5 μL of compound+EC20 FSH mixture were transferred to cell plates (1:2 dilution into 5 μL of cell media) The plates were incubated at 37° C. for 1 h. 10 μL of mixed HTRF (CisBio #62AM4PEC) reagents were added per well and incubated at room temperature for 1 h. The plates were read on Envision using the cAMP HTRF—low volume 384 well protocol. The readout was the calculated fluorescence ratio (665 nm/620 nm).

The chains behind the UniProt entries cited, without tags or fusion partners. Residues count along the entry.
UniProt P23945, 18-695 limits assumed: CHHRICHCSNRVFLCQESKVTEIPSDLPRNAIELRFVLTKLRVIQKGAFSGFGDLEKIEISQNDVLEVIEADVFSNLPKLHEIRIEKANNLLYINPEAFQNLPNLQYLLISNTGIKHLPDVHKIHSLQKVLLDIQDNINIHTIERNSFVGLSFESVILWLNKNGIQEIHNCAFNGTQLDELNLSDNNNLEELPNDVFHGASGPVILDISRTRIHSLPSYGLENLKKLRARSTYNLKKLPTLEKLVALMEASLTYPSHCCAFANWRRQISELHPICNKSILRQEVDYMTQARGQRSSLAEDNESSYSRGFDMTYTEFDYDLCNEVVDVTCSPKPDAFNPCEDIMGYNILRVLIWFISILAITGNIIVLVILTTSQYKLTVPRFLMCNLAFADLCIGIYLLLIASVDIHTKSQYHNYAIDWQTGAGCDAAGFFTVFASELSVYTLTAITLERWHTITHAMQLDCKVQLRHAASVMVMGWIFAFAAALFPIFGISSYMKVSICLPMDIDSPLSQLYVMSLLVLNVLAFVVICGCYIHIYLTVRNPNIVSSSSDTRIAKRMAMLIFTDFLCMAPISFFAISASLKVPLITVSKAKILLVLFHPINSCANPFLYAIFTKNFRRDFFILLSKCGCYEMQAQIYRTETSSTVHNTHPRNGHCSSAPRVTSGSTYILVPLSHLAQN

EC50 of cAMP production (% effect) (+ EC20 FSH, % effect in brackets): (101) %
EC50 (read-out: EC50 of cAMP production, + EC20 FSH (0.265 pM), 200 μM IBMX, 1 h at 37° C.): 0.7 nM
Compound: [2H]c1c([2H])c([2H])c(C#Cc2c([2H])c([2H])c([C@@H]3S[C@H](CC(=O)NC([2H])([2H])C([2H])([2H])c4ccc(OC([2H])([2H])[2H])c(OCC)c4)C(=O)N3c3cccc(C(N)=O)c3)c([2H])c2[2H])c([2H])c1[2H] (single isomer, unassigned)
